Experimental data as given in publication PMC3196588.
These are yes or no findings as the source states them, for the method shown. Some entries that bind do so weakly or less than the wild type.

By UniProt entry, the sequences of proteins in these tests, tags left out.
UniProt P17931: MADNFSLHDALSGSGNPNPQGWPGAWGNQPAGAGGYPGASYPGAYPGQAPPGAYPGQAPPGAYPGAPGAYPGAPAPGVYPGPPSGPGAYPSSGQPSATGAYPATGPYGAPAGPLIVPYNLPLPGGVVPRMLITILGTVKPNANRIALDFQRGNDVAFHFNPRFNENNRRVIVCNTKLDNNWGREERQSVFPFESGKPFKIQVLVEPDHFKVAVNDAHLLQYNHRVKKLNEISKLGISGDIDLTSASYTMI

Biological target: galectin-3 (UniProt P17931)
Experiment: affinity chromatography; galectin-1 unbound fraction of a serum applied to immobilized galectin-3; bound proteins identified by SDS-PAGE, MALDI-TOF MS and western blot; only the target purified

binding: binds
B1: α-2-macroglobulin (protein, UniProt P01023 24-1474)
chain: SVSGKPQYMVLVPSLLHTETTEKGCVLLSYLNETVTVSASLESVRGNRSLFTDLEAENDVLHCVAFAVPKSSSNEEVMFLTVQVKGPTQEFKKRTTVMVKNEDSLVFVQTDKSIYKPGQTVKFRVVSMDENFHPLNELIPLVYIQDPKGNRIAQWQSFQLEGGLKQFSFPLSSEPFQGSYKVVVQKKSGGRTEHPFTVEEFVLPKFEVQVTVPKIITILEEEMNVSVCGLYTYGKPVPGHVTVSICRKYSDASDCHGEDSQAFCEKFSGQLNSHGCFYQQVKTKVFQLKRKEYEMKLHTEAQIQEEGTVVELTGRQSSEITRTITKLSFVKVDSHFRQGIPFFGQVRLVDGKGVPIPNKVIFIRGNEANYYSNATTDEHGLVQFSINTTNVMGTSLTVRVNYKDRSPCYGYQWVSEEHEEAHHTAYLVFSPSKSFVHLEPMSHELPCGHTQTVQAHYILNGGTLLGLKKLSFYYLIMAKGGIVRTGTHGLLVKQEDMKGHFSISIPVKSDIAPVARLLIYAVLPTGDVIGDSAKYDVENCLANKVDLSFSPSQSLPASHAHLRVTAAPQSVCALRAVDQSVLLMKPDAELSASSVYNLLPEKDLTGFPGPLNDQDNEDCINRHNVYINGITYTPVSSTNEKDMYSFLEDMGLKAFTNSKIRKPKMCPQLQQYEMHGPEGLRVGFYESDVMGRGHARLVHVEEPHTETVRKYFPETWIWDLVVVNSAGVAEVGVTVPDTITEWKAGAFCLSEDAGLGISSTASLRAFQPFFVELTMPYSVIRGEAFTLKATVLNYLPKCIRVSVQLEASPAFLAVPVEKEQAPHCICANGRQTVSWAVTPKSLGNVNFTVSAEALESQELCGTEVPSVPEHGRKDTVIKPLLVEPEGLEKETTFNSLLCPSGGEVSEELSLKLPPNVVEESARASVSVLGDILGSAMQNTQNLLQMPYGCGEQNMVLFAPNIYVLDYLNETQQLTPEIKSKAIGYLNTGYQRQLNYKHYDGSYSTFGERYGRNQGNTWLTAFVLKTFAQARAYIFIDEAHITQALIWLSQRQKDNGCFRSSGSLLNNAIKGGVEDEVTLSAYITIALLEIPLTVTHPVVRNALFCLESAWKTAQEGDHGSHVYTKALLAYAFALAGNQDKRKEVLKSLNEEAVKKDNSVHWERPQKPKAPVGHFYEPQAPSAEVEMTSYVLLAYLTAQPAPTSEDLTSATNIVKWITKQQNAQGGFSSTQDTVVALHALSKYGAATFTRTGKAAQVTIQSSGTFSSKFQVDNNNRLLLQQVSLPELPGEYSMKVTGEGCVYLQTSLKYNILPEKEEFPFALGVQTLPQTCDEPKAHTSFQISLSVSYTGSRSASNMAIVDVKMVSGFIPLKPTVKMLERSNHVSRTEVSSNHVLIYLDKVSNQTLSLFFTVLQDVPVRDLKPAIVKVYDYYETDEFAIAEYNAPCSKDLGNA
modifications: N-glycans (8 per subunit)
